Entries after “also recorded” stand apart in the source; their conditions may differ. For some assays here: Part of at least one peptide drawing is inferred or uncertain, most often the ends. For some assays here: At least one compound was matched to its structure with a doubt left.
Legend:
[1] = tested on: PC3-PIP (PSMA+) tumor xenographs; assay: Positron emission tomography (PET/CT) of [Al^18F]5; assay type: in vivo, mice; conditions: 1 hour post injection
[2] = molecular target: PSMA (Homo sapiens, UniProt Q04609); assay: Competitive binding assay; parameters: endogenous in cells; host or cells: LNCaP (endogenous PSMA, from ATCC) or PC3-PIP (retrovirally transformed PSMA-positive PC3, from Dr. Michel Sadelain); conditions: LNCaP or PC3-PIP cells, 12 nM [^3H] ligand, 1 hour at 37° C.; 95% confidence intervals in parentheses
Experimental: The prostate cancer cell line LNCaP (PSMA-positive) was obtained from American Type Culture Collection (Manassas, Va.). Retrovirally transformed PSMA positive PC3-PIP cells and transfection controlled PC3-flu cells were obtained from Dr. […] (Laboratory of Gene Transfer and Gene Expression, Gene Transfer and Somatic Cell Engineering Facility, Memorial-Sloan Kettering Cancer Center, New York, N.Y.). Cells were grown at 37° C. and 5% CO2 under a humidified atmosphere. […] The mixture was centrifuged at 3,000 g for 5 min at 4° C., then washed three times with 500 μL of cold PBS. […] The concentration required to inhibit 50% of binding was determined (IC50) by Graph Pad Prism 3.0.

By UniProt entry, the sequences of proteins in these tests, tags left out.
UniProt Q04609, whole entry: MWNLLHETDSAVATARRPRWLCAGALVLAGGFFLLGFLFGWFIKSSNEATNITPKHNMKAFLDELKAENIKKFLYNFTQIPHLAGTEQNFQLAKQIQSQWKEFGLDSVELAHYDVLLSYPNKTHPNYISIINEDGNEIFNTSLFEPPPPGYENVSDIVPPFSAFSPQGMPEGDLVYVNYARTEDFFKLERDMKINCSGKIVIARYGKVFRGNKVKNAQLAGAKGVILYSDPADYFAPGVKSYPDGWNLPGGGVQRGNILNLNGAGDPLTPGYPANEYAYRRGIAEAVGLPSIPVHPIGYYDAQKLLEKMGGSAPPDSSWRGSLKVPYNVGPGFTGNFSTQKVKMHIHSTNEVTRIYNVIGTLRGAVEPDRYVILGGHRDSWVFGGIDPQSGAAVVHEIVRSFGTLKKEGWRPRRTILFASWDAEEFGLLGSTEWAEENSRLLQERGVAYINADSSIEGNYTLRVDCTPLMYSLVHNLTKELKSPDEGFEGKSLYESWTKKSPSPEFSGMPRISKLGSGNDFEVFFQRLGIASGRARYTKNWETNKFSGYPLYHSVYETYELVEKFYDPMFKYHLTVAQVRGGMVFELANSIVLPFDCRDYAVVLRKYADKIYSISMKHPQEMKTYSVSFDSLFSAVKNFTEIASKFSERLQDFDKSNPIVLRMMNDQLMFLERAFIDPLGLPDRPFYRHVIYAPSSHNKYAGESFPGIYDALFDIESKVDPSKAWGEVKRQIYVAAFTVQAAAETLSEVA

Compound | PET/CT imaging result in words [1] | IC50 [2] [nM]
NC(=O)[C@H](CCCCNC(=S)Nc1ccc(CC2CN(CC(=O)O)CCN(CC(=O)O)CCN2CC(=O)O)cc1)NC(=O)[C@H](Cc1ccc(O)cc1)NC(=O)[C@H](CCC(=O)O)NC(=O)[C@H](CCC(=O)O)NC(=O)[C@H](CCC(=O)O)NC(=O)CCCCCNC(=O)CC[C@H](NC(=O)N[C@@H](CCC(=O)O)C(=O)O)C(=O)O (single isomer, unassigned) [[Al^18F]5] | No significant tracer activity is seen in other tissue; also recorded: minimal background tracer uptake in the liver, lung, heart and spleen | 
NC(=O)[C@H](CCCCNC(=S)Nc1ccc(CC2CN(CC(=O)O)CCN(CC(=O)O)CCN2CC(=O)O)cc1)NC(=O)[C@H](Cc1ccc(O)cc1)NC(=O)[C@H](CCC(=O)O)NC(=O)[C@H](CCC(=O)O)NC(=O)[C@H](CCC(=O)O)NC(=O)CCCCCNC(=O)CC[C@H](NC(=O)N[C@@H](CCC(=O)O)C(=O)O)C(=O)O (single isomer, unassigned) [Compound 5, E′E-Ahx-EEEYK(Bn-NOTA)-NH2] |  | 4.3
